Results are given in words; binding and its absence hold for the method and conditions named. In cells and extracts the contact can be indirect. A result given as binding can be weak or reduced; the word gives no strength.
Biological target: FLAG-tagged TNF-α (UniProt P01375)
Test: co-IP; TNFR complex I analysis: HeLa cells (parental, NDP52-/-, HOIP-/-; 2×10^7) stimulated with 1 μg/ml FLAG-tagged TNF-α, lysed in 1% Triton X-100 buffer, anti-FLAG M2 magnetic beads overnight at 4°C, immunoblotting; only the target purified

Sequences of proteins named here, by UniProt entry; tags and fusion partners are left off. A change or cut given only in a name is not applied to a line headed by its entry.
UniProt P01375: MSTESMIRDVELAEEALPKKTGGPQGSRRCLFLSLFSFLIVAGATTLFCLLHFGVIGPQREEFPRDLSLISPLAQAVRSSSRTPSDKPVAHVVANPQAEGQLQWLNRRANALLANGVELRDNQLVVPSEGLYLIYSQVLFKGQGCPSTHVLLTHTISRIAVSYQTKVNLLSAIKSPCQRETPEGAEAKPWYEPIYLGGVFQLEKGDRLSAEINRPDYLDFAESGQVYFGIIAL
UniProt Q13137: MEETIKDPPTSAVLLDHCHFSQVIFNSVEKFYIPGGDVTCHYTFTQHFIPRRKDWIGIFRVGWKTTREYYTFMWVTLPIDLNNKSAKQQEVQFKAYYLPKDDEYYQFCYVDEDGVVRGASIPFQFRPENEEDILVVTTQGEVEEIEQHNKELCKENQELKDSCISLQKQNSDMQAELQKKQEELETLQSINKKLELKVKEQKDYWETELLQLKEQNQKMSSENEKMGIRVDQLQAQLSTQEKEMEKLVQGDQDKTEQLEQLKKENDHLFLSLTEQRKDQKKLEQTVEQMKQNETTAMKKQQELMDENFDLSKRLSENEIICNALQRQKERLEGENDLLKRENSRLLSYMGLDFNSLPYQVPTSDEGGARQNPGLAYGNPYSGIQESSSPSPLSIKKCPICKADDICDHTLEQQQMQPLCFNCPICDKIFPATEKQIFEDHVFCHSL

Which binding does the source give for “endogenous NDP52 of HeLa cells (from UniProt Q13137 1-446)” here?
The binding was “binds”.
